We go through 25 targets from the supplement of paper PMC10849652.

The chains behind the UniProt entries cited, without tags or fusion partners. Where a name states a change or a piece, a line headed by the entry shows the natural chain unless it says otherwise.
UniProt Q86T20: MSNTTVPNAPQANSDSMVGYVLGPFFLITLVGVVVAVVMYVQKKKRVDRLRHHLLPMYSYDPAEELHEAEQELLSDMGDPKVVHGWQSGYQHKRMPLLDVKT
UniProt Q8NDV3: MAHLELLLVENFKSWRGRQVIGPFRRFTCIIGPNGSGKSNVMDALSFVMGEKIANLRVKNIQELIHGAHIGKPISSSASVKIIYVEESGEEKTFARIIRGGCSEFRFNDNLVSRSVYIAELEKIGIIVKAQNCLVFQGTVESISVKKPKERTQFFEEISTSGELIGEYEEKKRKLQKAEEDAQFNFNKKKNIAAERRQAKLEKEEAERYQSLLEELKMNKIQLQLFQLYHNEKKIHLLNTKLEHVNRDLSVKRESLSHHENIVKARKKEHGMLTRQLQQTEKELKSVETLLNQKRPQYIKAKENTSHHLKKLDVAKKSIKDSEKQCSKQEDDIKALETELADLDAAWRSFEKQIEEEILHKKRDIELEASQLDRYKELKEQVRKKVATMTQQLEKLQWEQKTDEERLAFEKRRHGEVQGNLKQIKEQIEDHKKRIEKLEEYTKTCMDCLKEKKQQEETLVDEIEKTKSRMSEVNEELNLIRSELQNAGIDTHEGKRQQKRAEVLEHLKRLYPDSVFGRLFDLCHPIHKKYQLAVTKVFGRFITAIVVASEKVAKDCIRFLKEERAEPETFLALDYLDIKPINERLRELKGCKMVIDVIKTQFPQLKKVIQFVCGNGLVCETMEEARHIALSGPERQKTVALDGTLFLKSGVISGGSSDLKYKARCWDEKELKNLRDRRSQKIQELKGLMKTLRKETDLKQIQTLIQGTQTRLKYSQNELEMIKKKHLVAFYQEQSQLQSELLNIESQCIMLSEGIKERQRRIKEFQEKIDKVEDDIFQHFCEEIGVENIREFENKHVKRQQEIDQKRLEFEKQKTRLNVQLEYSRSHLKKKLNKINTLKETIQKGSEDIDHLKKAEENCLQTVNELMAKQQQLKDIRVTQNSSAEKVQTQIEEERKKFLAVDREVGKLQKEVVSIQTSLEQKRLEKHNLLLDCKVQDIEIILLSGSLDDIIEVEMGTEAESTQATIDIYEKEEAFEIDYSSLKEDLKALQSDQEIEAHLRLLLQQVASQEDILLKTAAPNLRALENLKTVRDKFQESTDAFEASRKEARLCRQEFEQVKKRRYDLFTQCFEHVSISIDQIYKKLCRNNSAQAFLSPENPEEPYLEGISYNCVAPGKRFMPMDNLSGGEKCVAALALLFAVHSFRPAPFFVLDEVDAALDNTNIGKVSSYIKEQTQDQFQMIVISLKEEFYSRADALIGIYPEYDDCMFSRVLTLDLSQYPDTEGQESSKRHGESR
UniProt P35716: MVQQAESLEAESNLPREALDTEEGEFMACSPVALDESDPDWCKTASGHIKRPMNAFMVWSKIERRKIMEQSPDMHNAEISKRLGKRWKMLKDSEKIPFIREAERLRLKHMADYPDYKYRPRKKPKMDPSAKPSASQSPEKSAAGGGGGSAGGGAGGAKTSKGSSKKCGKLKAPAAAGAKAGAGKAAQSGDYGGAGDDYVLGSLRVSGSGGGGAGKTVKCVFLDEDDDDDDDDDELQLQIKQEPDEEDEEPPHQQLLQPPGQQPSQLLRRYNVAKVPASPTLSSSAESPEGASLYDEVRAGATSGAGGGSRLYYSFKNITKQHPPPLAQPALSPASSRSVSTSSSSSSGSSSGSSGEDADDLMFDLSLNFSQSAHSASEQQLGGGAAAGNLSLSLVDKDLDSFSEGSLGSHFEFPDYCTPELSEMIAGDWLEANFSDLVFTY
UniProt Q8TAQ2, whole entry, looked up: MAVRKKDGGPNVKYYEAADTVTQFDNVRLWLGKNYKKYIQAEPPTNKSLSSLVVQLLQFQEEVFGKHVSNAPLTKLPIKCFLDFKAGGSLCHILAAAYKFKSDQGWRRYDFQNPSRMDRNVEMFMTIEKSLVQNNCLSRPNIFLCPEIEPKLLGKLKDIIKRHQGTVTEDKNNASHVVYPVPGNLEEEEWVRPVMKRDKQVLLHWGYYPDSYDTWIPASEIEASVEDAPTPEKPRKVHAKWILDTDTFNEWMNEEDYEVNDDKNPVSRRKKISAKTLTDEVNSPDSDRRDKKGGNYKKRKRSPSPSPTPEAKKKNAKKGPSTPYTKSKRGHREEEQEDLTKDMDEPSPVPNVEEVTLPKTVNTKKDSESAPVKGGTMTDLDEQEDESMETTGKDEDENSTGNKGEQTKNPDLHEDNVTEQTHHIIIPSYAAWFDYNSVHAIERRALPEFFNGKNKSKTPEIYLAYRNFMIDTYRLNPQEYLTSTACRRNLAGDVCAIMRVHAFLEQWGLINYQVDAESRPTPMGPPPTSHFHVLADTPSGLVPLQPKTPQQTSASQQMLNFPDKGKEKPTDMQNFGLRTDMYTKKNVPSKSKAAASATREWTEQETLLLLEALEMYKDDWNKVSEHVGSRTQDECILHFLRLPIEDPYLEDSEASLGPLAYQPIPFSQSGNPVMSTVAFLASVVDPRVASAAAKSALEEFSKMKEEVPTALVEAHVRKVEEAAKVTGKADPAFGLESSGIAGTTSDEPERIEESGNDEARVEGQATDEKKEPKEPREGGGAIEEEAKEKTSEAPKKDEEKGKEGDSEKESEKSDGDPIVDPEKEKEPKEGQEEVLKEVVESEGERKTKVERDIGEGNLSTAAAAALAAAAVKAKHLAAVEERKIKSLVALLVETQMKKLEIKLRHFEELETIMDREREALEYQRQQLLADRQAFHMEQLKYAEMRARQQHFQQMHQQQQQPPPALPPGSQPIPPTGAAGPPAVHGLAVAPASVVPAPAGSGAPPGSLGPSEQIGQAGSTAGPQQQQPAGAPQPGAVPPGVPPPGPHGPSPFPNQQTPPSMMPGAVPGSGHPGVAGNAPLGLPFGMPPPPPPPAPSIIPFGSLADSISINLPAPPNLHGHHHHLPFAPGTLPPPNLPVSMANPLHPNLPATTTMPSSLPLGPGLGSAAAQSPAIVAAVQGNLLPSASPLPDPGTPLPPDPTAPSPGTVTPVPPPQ
UniProt P58511: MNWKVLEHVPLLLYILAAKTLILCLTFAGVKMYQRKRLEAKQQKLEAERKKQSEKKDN
UniProt Q92966: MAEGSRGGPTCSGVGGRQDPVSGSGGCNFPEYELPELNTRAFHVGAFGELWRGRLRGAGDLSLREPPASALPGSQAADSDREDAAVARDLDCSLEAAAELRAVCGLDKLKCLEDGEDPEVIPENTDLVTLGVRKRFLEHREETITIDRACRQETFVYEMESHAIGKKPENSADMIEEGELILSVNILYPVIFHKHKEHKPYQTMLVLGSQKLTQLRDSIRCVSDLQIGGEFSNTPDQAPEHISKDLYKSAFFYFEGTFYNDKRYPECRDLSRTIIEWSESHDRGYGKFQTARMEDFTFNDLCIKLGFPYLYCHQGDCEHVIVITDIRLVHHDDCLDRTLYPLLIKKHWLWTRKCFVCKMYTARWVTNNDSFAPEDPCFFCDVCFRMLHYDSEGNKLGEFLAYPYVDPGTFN
UniProt Q16533: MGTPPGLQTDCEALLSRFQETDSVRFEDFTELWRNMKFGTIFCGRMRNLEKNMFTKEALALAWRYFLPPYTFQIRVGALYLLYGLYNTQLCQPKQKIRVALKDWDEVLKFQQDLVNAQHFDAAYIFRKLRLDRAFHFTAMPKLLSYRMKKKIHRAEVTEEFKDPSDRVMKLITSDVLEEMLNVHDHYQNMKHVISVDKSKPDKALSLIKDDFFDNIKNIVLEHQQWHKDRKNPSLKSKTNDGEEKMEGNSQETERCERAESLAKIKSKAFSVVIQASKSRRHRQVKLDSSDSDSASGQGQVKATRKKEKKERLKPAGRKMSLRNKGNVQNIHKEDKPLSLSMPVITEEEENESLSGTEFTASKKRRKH
UniProt Q02086: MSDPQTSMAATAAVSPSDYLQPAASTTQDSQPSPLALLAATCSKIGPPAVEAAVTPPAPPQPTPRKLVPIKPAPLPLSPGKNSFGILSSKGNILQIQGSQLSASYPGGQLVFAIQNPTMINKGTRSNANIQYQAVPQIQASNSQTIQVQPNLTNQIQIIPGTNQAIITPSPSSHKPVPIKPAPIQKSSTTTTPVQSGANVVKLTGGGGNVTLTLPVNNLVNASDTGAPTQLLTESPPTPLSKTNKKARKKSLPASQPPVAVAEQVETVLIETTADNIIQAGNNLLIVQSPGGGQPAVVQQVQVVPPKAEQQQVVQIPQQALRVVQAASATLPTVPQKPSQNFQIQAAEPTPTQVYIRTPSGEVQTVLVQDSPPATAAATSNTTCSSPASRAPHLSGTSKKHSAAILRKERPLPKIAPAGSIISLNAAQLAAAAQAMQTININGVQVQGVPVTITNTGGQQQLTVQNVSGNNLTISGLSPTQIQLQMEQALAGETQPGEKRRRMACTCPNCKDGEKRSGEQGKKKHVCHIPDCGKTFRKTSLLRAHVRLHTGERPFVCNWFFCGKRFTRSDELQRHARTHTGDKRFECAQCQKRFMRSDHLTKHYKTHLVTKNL
UniProt P17405: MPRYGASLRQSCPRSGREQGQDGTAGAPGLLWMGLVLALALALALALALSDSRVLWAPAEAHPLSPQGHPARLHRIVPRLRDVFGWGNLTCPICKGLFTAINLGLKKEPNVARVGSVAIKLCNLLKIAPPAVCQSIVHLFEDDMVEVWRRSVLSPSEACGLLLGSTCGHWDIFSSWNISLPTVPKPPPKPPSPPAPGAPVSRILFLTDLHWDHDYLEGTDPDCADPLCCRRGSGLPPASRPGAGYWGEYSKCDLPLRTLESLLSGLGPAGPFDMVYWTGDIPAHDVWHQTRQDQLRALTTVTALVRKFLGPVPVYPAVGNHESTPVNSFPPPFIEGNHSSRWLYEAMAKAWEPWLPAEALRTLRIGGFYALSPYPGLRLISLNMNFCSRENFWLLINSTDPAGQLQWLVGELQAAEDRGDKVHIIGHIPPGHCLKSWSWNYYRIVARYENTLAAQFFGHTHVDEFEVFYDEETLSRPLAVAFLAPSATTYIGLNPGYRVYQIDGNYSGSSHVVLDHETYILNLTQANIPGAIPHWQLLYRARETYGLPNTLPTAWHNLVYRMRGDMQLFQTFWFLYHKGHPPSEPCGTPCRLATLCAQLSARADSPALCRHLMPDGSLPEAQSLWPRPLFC
UniProt Q5SXM2: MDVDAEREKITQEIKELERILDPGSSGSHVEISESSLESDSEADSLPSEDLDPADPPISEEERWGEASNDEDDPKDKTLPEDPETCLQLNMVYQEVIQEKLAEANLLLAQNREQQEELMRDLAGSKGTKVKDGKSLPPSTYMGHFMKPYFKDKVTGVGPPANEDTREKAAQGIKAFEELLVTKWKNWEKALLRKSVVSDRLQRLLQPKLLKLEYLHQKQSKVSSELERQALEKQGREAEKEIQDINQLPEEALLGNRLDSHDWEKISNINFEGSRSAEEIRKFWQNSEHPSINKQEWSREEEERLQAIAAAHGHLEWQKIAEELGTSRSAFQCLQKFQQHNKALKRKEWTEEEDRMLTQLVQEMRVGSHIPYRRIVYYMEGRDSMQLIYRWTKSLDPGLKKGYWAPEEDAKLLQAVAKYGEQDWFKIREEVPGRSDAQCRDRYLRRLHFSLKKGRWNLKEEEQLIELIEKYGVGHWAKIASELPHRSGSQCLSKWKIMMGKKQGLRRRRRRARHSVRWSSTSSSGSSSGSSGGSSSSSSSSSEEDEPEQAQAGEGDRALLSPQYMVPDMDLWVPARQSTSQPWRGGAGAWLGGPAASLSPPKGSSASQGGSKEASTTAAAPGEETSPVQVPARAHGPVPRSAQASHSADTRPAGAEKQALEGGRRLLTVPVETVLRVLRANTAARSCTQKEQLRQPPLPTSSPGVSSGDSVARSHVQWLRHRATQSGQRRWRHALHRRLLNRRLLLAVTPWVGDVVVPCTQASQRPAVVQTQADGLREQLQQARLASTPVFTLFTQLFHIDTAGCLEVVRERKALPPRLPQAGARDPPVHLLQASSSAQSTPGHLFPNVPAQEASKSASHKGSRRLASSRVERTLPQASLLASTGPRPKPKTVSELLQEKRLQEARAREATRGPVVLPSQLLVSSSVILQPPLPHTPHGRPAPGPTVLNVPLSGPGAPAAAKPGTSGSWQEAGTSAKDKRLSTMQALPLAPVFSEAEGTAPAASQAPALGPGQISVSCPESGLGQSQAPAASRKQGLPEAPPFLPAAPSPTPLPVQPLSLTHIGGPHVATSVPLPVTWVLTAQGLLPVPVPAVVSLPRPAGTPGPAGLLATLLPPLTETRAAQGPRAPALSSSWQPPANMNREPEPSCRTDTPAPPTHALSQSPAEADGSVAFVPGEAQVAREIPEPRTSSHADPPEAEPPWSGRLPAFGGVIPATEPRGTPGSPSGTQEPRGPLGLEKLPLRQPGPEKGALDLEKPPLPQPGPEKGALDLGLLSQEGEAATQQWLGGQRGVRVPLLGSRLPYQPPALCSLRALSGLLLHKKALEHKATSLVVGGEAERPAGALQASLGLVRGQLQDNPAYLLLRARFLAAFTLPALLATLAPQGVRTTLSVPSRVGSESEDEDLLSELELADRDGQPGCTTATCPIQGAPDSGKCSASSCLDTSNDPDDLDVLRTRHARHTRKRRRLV

The other results are listed elsewhere or left out.

Compound in one test: COc1cc2nc(-c3cc(F)ccc3O)nc(N[C@@H]3CNC[C@H]3C(C)(C)O)c2cc1OC
The test can be described thus: log2 fold change, soluble protein after heating vs DMSO (PISA); higher = thermal stabilisation; K562 lysate, 10 uM; active = over 0.2 and 3.5 SD of the protein, either way, in both replicates (recomputed). In outline: (§1)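 Values give the log-two fold change in thermal stability against solvent controls, from duplicates. Crude K562 extract at 1 mg/mL protein, made by dounce homogenisation in PBS pH 7.4 with 1 mM MgCl2, was treated with 10 μM compound for 30 min. After 3 min heating across 48°C-58°C, aliquots were pooled, adjusted to 0.5% NP-40 at 4°C and centrifuged at 21,000xg for 90 min. The supernatant was measured by TMTpro 16plex LC-MS/MS with channel sums equalised.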
Take SMPDL3A (UniProt Q92484): the log2 fold change was inactive: -0.251.
With SMIM29 (UniProt Q86T20), the log2 fold change is inactive: 0.071.
Same read-out and setting: to SMC1B isoform 3 (UniProt Q8NDV3) belongs inactive: -0.03; to SNX14 (UniProt Q9Y5W7), inactive: 0.035.
Same read-out and setting: to SOX11 (UniProt P35716) belongs inactive: 0.124; to SMOX isoform 6 (UniProt Q9NWM0), inactive: -0.079; to SMYD3 (UniProt Q9H7B4), inactive: 0.
The same measure, in the same setting: to SMARCC2 isoform 3 (UniProt Q8TAQ2) belongs inactive: 0.161; to SPAG1 (UniProt Q07617), inactive: -0.03.
On to SNRPA1 (UniProt H0YMA0), for which the log2 fold change is inactive: 0.027.
Still for that read-out and setting: to SOD3 (UniProt P08294) belongs inactive: -0.109.
Same read-out and setting: the same measure for SMIM11A (UniProt P58511): inactive: -0.131; for SNX2 isoform 2 (UniProt O60749): inactive: 0.09; for SNRPD2 (UniProt K7EJB5): inactive: 0.025.

Compound in a further test: COc1cc2ncnc(Nc3ccc(F)c(Cl)c3)c2cc1OCCCN1CCOCC1 [gefitinib]
The description is as above. The procedure, abridged: as §1
For SNIP1 (UniProt Q8TAD8), the log2 fold change was inactive: -0.015.
SMC1B isoform 3 (UniProt Q8NDV3): the log2 fold change is inactive: 0.044.
On the same count and under the same terms, to SNX14 (UniProt Q9Y5W7) belongs inactive: 0.064.
With SMYD3 (UniProt Q9H7B4), the log2 fold change was inactive: 0.034.
On the same count and under the same terms, to SNAPC3 (UniProt Q92966) belongs inactive: 0.071.
Still for that read-out and setting: the same measure for SNRNP25 (UniProt Q9BV90): inactive: -0.036.
Same read-out and setting: to SNAPC1 (UniProt Q16533) belongs inactive: -0.242.
Take SNAPC5 (UniProt O75971): the log2 fold change is inactive: 0.066.
Still for that read-out and setting: to SMARCC2 isoform 3 (UniProt Q8TAQ2) belongs inactive: -0.097; to SNX33 (UniProt Q8WV41), inactive: 0.007.
In the case of SP2 (UniProt Q02086), the log2 fold change was inactive: -0.082.
The same measure, in the same setting: the same measure for SMPD1 (UniProt P17405): inactive: -0.081; for SNX2 isoform 2 (UniProt O60749): inactive: -0.016; for SNRPD2 (UniProt K7EJB5): inactive: 0.107.
The same measure, in the same setting: the same measure for SNAPC4 (UniProt Q5SXM2): inactive: 0.061; for SON isoform 6 (UniProt P18583): inactive: 0.059; for SNRNP35 isoform 2 (UniProt Q16560): inactive: 0.066.
